These are yes or no findings as the source states them, for the method shown. For some assays here: In cells and extracts the contact can be indirect. Some binding calls cover weakened binding; strength is not graded here. Where a sequence is shown, tags or fusion partners need not be part of it.
Assays:
GST-Gbp2 = target: T1, GST-Gbp2 (UniProt Q9Z0E6); assay: pull-down; printed as 'in vitro binding assay' with recombinant GST-Gbp2 and His-Pin1 purified from bacteria; which protein was held is not told; both purified
T1 sequence: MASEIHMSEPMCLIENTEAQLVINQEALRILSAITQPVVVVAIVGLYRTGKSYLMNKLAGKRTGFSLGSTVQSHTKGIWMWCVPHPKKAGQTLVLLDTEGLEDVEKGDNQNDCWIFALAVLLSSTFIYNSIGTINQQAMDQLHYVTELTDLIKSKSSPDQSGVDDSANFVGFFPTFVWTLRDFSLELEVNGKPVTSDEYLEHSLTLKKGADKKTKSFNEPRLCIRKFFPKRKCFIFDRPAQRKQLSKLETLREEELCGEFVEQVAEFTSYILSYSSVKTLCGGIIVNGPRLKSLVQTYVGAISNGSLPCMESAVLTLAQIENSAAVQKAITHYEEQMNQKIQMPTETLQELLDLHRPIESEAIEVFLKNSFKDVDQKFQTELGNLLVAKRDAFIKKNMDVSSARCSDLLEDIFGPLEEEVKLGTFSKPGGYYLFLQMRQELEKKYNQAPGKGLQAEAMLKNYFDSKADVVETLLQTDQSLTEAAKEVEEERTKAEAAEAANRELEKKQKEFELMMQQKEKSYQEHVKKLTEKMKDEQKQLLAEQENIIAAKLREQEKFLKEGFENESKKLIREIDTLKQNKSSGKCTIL

Amino acid sequences for entries named in this document (tags omitted).
UniProt Q9QUR7: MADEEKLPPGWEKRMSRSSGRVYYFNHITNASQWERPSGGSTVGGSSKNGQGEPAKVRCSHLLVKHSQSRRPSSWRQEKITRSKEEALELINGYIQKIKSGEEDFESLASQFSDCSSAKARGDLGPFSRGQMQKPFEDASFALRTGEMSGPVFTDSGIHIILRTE

Flag-tagged Gbp2 = target: T2, Flag-tagged Gbp2 (UniProt Q9Z0E6); assay: co-IP; lysate of RAW264.7 macrophages transfected with Flag-Gbp2, in IP lysis buffer; incubated overnight at 4 °C with anti-Flag magnetic beads; washed five times with 1% TBST; western blot
T2 sequence: T1 sequence

| binding (GST-Gbp2) | binding (Flag-tagged Gbp2) | Substance |
| --- | --- | --- |
| binds | – | His-Pin1 (from UniProt Q9QUR7 1-165) |
| – | binds | Pin1 (from UniProt Q9QUR7 1-165) |
